± gives the standard deviation of the averaged measurements. The list shows a part of the results.

By UniProt entry, the sequences of proteins in these tests, tags left out. Where a name states a change or a piece, a line headed by the entry shows the natural chain unless it says otherwise.
UniProt Q643R3: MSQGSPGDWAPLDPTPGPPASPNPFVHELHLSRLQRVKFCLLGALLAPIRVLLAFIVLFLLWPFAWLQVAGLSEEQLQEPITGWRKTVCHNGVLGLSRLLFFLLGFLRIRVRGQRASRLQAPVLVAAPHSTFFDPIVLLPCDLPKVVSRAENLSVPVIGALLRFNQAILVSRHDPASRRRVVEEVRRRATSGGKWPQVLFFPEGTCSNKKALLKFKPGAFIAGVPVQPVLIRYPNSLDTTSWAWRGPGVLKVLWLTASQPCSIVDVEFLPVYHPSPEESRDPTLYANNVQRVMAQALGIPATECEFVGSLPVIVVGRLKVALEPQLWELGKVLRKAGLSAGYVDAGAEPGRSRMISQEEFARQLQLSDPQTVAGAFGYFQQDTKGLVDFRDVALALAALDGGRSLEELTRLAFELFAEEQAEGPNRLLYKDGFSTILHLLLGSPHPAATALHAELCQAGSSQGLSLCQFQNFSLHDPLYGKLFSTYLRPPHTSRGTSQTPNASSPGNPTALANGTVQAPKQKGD
UniProt A6NC98: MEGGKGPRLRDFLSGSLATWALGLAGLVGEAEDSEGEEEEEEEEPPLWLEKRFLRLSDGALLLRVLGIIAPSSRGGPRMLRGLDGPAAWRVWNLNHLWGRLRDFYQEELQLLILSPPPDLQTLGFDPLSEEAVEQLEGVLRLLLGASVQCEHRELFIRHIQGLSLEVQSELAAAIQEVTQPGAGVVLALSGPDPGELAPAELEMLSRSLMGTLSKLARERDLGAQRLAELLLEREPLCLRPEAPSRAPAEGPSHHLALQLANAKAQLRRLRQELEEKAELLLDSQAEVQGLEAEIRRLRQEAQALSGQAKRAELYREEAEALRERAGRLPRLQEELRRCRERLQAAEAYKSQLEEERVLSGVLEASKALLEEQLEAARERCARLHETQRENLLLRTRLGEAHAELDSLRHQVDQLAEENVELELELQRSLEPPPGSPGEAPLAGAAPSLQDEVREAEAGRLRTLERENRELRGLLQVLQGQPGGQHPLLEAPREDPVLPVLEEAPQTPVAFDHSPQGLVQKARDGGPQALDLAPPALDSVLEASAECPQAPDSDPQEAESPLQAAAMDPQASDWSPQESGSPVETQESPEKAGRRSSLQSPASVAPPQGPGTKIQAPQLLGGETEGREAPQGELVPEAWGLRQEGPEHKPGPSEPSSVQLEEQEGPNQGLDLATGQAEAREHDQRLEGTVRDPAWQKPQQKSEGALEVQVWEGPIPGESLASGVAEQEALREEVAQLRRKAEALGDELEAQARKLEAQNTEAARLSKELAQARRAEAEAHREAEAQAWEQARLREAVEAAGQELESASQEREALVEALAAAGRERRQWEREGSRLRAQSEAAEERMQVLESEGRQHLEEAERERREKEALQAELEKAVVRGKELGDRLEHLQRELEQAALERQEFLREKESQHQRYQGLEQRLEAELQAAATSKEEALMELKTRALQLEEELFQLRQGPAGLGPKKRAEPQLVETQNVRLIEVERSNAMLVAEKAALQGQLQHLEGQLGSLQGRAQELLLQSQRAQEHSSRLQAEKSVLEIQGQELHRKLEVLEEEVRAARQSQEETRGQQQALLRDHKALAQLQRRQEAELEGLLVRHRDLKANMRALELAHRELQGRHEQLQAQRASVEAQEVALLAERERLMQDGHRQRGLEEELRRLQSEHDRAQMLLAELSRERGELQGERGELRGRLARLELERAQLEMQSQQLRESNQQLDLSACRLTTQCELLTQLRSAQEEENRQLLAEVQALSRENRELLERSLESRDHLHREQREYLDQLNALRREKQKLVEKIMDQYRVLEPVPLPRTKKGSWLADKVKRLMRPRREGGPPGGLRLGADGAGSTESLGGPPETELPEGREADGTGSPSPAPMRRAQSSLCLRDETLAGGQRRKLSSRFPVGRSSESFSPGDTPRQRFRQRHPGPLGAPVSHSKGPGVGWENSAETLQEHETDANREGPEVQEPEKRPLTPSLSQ
UniProt Q5T8I9: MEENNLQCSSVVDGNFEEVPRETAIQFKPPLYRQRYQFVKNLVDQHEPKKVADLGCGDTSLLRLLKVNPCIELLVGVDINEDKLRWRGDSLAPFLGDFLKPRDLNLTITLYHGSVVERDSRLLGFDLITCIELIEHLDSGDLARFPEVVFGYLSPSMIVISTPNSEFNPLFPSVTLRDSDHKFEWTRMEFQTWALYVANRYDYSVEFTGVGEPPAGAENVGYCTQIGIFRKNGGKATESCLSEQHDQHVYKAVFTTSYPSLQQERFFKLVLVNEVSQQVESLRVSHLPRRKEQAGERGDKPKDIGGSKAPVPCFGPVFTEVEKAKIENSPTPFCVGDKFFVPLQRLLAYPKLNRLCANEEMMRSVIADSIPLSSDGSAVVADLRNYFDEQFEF
UniProt P30566: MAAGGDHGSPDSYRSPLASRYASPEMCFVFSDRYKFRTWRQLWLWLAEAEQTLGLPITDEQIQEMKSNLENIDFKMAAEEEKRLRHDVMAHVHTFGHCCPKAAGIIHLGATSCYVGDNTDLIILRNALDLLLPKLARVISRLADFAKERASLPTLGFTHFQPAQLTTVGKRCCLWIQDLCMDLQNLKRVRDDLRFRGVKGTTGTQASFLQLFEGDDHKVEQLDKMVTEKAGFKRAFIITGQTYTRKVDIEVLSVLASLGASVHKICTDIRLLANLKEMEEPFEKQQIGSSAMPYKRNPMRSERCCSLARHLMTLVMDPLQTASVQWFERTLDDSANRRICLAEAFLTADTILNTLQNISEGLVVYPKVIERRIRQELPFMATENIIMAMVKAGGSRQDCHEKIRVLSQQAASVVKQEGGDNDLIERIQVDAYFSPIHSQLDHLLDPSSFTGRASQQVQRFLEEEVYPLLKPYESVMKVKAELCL
UniProt Q03518, whole entry: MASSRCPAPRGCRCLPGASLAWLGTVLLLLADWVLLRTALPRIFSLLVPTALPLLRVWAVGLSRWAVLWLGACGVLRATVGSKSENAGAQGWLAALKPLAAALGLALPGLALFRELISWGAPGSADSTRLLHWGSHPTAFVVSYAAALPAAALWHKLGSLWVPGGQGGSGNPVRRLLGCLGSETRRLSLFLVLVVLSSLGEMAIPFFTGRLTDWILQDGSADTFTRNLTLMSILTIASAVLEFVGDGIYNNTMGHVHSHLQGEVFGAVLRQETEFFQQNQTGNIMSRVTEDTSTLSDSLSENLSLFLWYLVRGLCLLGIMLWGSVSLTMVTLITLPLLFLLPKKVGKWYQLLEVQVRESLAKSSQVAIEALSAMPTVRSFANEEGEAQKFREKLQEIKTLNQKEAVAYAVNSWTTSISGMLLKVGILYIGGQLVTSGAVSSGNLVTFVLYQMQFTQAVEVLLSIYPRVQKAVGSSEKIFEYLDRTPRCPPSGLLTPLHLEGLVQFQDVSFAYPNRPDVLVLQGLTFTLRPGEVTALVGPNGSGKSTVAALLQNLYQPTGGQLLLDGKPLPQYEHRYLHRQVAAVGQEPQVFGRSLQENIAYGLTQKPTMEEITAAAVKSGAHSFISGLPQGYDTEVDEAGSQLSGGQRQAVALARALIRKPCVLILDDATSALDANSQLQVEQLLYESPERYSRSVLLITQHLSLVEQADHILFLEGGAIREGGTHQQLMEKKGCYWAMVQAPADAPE
UniProt A3KMH1: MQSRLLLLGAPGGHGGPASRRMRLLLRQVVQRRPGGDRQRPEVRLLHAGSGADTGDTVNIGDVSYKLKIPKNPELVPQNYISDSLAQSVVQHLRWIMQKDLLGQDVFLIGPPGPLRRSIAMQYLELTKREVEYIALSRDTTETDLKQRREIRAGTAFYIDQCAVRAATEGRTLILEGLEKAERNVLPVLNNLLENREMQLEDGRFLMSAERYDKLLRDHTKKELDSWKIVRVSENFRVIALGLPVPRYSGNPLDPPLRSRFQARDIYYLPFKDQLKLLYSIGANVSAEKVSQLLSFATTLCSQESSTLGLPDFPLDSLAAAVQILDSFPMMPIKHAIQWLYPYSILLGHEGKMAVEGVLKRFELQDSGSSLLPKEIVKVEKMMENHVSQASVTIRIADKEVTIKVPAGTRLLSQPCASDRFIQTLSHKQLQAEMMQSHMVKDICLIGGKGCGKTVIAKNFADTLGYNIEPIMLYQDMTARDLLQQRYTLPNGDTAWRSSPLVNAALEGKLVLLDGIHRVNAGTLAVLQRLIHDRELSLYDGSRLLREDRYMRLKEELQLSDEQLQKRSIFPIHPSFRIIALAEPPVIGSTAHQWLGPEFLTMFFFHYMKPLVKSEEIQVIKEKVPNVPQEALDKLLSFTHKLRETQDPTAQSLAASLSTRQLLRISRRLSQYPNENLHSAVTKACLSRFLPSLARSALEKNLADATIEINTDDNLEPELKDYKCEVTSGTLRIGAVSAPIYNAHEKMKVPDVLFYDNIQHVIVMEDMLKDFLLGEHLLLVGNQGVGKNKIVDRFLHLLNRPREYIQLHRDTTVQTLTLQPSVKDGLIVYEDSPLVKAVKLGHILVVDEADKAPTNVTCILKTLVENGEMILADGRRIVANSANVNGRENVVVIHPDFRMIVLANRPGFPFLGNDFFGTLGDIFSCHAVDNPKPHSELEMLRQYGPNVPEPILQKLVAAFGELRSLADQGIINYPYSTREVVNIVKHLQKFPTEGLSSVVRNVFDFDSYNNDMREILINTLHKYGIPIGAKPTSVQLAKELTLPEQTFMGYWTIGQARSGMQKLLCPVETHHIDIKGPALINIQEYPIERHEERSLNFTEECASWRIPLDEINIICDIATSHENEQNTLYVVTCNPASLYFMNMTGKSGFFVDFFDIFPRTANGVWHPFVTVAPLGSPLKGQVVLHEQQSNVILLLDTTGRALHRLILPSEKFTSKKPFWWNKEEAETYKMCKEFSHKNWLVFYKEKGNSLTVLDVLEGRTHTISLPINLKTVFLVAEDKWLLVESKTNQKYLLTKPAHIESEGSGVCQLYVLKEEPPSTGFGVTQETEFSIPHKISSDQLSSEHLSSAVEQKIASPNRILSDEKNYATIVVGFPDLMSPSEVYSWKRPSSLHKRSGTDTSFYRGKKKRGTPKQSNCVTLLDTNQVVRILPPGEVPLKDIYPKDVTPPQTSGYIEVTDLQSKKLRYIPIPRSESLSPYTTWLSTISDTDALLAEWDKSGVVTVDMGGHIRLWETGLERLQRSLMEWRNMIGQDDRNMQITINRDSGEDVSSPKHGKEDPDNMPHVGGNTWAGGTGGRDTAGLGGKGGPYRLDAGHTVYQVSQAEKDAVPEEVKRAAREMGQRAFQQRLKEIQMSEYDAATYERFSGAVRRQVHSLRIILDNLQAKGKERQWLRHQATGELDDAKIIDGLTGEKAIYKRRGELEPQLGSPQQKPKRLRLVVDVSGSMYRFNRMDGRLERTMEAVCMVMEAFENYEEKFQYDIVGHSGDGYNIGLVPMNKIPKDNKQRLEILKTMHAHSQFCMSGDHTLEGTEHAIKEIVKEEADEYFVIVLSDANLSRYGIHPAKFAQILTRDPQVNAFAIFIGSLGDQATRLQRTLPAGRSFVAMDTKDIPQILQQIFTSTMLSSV
UniProt Q5T7M9: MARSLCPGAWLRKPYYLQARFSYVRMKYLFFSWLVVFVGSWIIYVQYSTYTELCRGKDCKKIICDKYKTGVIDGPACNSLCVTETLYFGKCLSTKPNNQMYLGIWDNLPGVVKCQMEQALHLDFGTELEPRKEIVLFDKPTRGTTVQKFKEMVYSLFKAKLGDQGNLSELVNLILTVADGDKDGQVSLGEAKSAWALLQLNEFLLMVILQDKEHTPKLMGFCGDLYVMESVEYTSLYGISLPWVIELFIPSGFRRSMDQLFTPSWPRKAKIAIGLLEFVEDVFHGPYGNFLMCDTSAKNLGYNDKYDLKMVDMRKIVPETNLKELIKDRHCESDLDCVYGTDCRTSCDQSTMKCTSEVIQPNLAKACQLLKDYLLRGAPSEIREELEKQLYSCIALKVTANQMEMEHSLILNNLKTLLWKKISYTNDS
UniProt Q9UHJ6: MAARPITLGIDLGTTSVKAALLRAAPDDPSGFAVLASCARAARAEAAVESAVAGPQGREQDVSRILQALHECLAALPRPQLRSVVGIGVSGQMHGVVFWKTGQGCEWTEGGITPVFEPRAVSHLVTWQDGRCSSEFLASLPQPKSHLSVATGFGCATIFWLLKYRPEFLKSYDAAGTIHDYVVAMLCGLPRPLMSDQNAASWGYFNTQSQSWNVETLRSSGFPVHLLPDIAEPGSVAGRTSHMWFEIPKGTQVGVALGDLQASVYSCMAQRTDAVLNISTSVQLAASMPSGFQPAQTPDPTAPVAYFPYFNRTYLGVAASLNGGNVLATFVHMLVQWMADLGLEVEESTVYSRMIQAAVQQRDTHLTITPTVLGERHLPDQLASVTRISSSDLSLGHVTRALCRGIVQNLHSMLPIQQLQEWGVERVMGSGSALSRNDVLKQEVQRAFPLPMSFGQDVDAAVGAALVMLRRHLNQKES

Data on 38 targets can be found in the supplement of paper PMC6411743.

Compound in this experiment: Nc1nc2c(ncn2[C@@H]2O[C@H](COP(=O)(O)OP(=O)(O)OP(=O)(O)O)[C@@H](O)[C@H]2O)c(=O)[nH]1 [guanosine triphosphate]
As to the kind of experiment: NP40-soluble protein abundance relative to vehicle (solubility fold change) (ratio); higher = more soluble protein in presence of GTP. As to conditions: concentration: 0.1mM. An outline of the steps:
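Values are fold changes against the detergent-processed vehicle, based on vsn-normalised intensities. Jurkat crude lysate was treated at eight concentrations from 0.1 to 10 mM (10 min at room temperature, then 3 min at 37 °C), solubilised with 0.8% NP40 and benzonase, ultracentrifuged and analysed by TMT-labelled LC-MS/MS over three independent experiments.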
“A0A096LP75|C4AMC7 and related entries (UniProt Q6VEQ5+C4AMC7)”: the NP40-soluble protein abundance was 0.9598 ± 0.002.

For the target A0A140T9R1|O75955 (UniProt O75955), the NP40-soluble protein abundance is 1.04 ± 0.045.

“A0A0A0MQS0|A8MW92 and related entries (UniProt A8MW92)”: the NP40-soluble protein abundance was 0.989 ± 0.079.

On to A0A0C4DGT4|Q643R3 (UniProt Q643R3), for which the NP40-soluble protein abundance is 0.953 ± 0.051.

For the target A0A0C4DGV9|P49917 (UniProt P49917), the NP40-soluble protein abundance was determined as 1.05 ± 0.045.

As for “A0A087X127|E7EWM3 and related entries (UniProt Q8NF64)”, the NP40-soluble protein abundance worked out at 1.04 ± 0.16.

For the target CCDC88B (UniProt A6NC98), the NP40-soluble protein abundance is 1.02 ± 0.067.

As for “A0A0A0MRC4|A0A0A0MSK4|Q86YR5 and related entries (UniProt Q86YR5)”, the NP40-soluble protein abundance was found to be 0.937 ± 0.015.

On to “A0A087WZ62|Q9H6U8 and related entries (UniProt Q9H6U8)”, for which the NP40-soluble protein abundance is 1.026 ± 0.0093.

Turning to “A0A0D9SFR6|Q86XP1 and related entries (UniProt Q86XP1)”, the NP40-soluble protein abundance is 1.02 ± 0.12.

Take A0A087WXN9|Q765P7 (UniProt Q765P7): the NP40-soluble protein abundance worked out at 1.14 ± 0.17.

Regarding “A0A5E8 and related entries (UniProt Q99501)”, the NP40-soluble protein abundance is 1.12 ± 0.09.

In the case of “A0A0A6YYC7|Q96JP5 and related entries (UniProt Q96JP5)”, the NP40-soluble protein abundance is 0.94 ± 0.06.

In the case of A0A0A0MRN1|Q5T8I9 (UniProt Q5T8I9), the NP40-soluble protein abundance was determined as 1.02 ± 0.11.

Turning to UniProt A2RTX5 and related entries, the NP40-soluble protein abundance was determined as 1.175 ± 0.01.

“A0A0A0MRE5|Q9ULH1 and related entries (UniProt Q9ULH1)”: the NP40-soluble protein abundance was 1.06 ± 0.029.

As to “A0A0A0MQU0|K7EIR0 and related entries (UniProt Q9BV38)”, the NP40-soluble protein abundance was determined as 0.994 ± 0.053.

On to “A6NCC9 and related entries (UniProt Q9Y5U2)”, for which the NP40-soluble protein abundance was 0.984 ± 0.024.

Turning to A0A096LPA2|P30566 (UniProt P30566), the NP40-soluble protein abundance is 1.02 ± 0.024.

With “A0A0A0MS45|J3KNI1 and related entries (UniProt Q9H9E3)”, the NP40-soluble protein abundance amounted to 1.03 ± 0.011.

Take A0A0C4DFX9|Q9H3P2 (UniProt Q9H3P2): the NP40-soluble protein abundance was found to be 0.913 ± 0.032.

For the target “A0A087X0H7|Q8NEL9 and related entries (UniProt Q8NEL9)”, the NP40-soluble protein abundance came to 1.06 ± 0.06.

For the target A0A140T9T7|Q03518 (UniProt Q03518), the NP40-soluble protein abundance was found to be 1.03 ± 0.032.

In the case of “A0A0D9SFK2|Q92614 and related entries (UniProt Q92614)”, the NP40-soluble protein abundance was determined as 1 ± 0.062.

Regarding UniProt A3KMH1 and related entries, the NP40-soluble protein abundance came out at 1.09 ± 0.064.

Regarding “A0A0A0MSQ0|H7C4N2 and related entries (UniProt P13797)”, the NP40-soluble protein abundance worked out at 1.04 ± 0.065.

For the target A0A0X1KG71|Q8WX92 (UniProt Q8WX92), the NP40-soluble protein abundance was 0.9588 ± 0.0051.

Regarding “A0A0C4DGS5|Q08379 and related entries (UniProt Q08379)”, the NP40-soluble protein abundance stood at 0.924 ± 0.011.

Regarding “A0A087WZ97|A0A087WZK6|A0A087X2C2|Q5T7M9 (UniProt Q5T7M9)”, the NP40-soluble protein abundance stood at 1.07 ± 0.05.

A0A087WYB4|Q9UJZ1 (UniProt Q9UJZ1): the NP40-soluble protein abundance is 0.917 ± 0.061.

Regarding “A0A087X0R0|F5H6S1 and related entries (UniProt O15550)”, the NP40-soluble protein abundance worked out at 1.07 ± 0.1.

On to A0A0C4DGS1|P39656 (UniProt P39656), for which the NP40-soluble protein abundance is 1 ± 0.036.

Regarding “A0A087WXC5|E7ESZ7 and related entries (UniProt O95299)”, the NP40-soluble protein abundance worked out at 0.999 ± 0.069.

For the target A0A0B4J2A0|Q9UHJ6 (UniProt Q9UHJ6), the NP40-soluble protein abundance was 1.03 ± 0.098.

A0A0C4DGH6|A0JNW5 (UniProt A0JNW5): the NP40-soluble protein abundance was determined as 1.02 ± 0.076.

Consider “A0A0A0MQT4|Q5QP82 and related entries (UniProt Q5QP82)”, for which the NP40-soluble protein abundance stood at 1.08 ± 0.081.

As for “A0A0G2JLB3|A0A0G2JNZ5|P04062 and related entries (UniProt P04062)”, the NP40-soluble protein abundance came to 1.42 ± 0.38.

In the case of UniProt A5PLN9 and related entries, the NP40-soluble protein abundance amounted to 1.02 ± 0.078.
